The results in this text go back to paper PMC9118924.

Amino acid sequences for entries named in this document (tags omitted). A change or cut given only in a name is not applied to a line headed by its entry. Chains listed by the source or under a name are the forms on record and can include a tag or linker.
UniProt Q9NQS5: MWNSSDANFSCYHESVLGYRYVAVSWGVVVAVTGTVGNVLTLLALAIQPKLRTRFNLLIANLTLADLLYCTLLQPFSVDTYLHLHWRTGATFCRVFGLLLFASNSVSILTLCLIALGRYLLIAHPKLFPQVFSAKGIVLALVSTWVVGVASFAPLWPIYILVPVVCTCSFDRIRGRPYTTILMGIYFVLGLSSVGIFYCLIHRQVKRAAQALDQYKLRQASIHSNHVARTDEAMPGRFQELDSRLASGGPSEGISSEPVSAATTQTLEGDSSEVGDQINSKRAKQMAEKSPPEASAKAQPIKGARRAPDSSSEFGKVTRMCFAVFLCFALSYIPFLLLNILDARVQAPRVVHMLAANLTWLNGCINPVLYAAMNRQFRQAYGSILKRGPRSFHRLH
Ser^221Ala, Ser^224Ala-GPR84-eYFP (Q9NQS5, form named): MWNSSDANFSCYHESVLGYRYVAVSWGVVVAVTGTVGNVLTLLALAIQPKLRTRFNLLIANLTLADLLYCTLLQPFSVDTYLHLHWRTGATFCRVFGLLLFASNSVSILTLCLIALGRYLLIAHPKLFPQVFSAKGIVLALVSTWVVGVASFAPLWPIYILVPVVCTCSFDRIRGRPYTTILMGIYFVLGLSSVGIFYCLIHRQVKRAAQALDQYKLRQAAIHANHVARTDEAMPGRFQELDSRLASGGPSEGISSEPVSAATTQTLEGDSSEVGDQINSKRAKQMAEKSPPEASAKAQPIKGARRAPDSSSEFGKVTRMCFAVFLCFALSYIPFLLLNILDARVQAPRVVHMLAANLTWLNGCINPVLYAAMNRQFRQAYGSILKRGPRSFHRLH
Thr^263Ala,Thr^264Ala-GPR84-eYFP (Q9NQS5, form named): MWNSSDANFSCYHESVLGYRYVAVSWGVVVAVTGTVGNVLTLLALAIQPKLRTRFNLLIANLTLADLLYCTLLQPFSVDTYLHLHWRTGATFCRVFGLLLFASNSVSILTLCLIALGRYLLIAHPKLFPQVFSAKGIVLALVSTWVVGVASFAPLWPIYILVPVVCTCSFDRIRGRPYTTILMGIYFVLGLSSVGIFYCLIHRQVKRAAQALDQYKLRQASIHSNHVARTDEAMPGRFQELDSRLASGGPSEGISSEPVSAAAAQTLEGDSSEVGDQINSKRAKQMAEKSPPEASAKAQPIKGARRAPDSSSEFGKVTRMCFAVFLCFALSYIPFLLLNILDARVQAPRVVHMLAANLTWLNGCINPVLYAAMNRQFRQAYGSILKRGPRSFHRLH
UniProt P49407: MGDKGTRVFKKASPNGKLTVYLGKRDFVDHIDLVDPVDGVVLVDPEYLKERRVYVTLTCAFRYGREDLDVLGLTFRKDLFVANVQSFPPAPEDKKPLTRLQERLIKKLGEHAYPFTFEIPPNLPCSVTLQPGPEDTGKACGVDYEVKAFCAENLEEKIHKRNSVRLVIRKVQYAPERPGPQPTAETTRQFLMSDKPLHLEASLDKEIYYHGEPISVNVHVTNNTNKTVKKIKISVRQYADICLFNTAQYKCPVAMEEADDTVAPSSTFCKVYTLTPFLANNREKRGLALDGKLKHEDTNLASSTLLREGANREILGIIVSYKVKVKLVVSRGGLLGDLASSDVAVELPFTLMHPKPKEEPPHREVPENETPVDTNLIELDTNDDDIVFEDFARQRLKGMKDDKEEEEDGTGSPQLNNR

Common to all, as to assay: FRET or BRET; HEK293T cells transiently co-transfected with GPR84-eYFP (wild type or mutant) and arrestin-2- or arrestin-3-nanoluciferase (100:1); live cells in HBSS pH 7.4, nano-Glo substrate, agonist 2-HTP at varying concentrations (6-OAU too for wild type and Arg172Ala; co-addition of PSB-16671 or DL-175 for wild type) for 5 min at 37 °C; net BRET 535/475 nm
(In general: BRET reads energy transfer from a luciferase to a nearby fluorophore.)

Assay [1] addresses FLAG-human GPR84-eYFP (human) (UniProt Q9NQS5).
In assay [2] the target is Ser^221Ala, Ser^224Ala-GPR84-eYFP (human) (UniProt Q9NQS5).
Assay [3] has as its target Thr^263Ala,Thr^264Ala-GPR84-eYFP (human) (UniProt Q9NQS5).

These are yes or no findings as the source states them, for the method shown. In cells and extracts the contact can be indirect. Some results given as binding are weak or reduced against the parent protein; the word gives no strength.

Turning to “arrestin-2 fused to nanoluciferase (from UniProt P49407 1-418)”, the binding result in assay [1] is recorded as “binds”; in assay [2] it was “binds”; in assay [3] it was “no binding”.
